Over roughly 33,000 sequences, “E-score (-0.5 to 0.5)” has its median near -8e-05; the highest 2% begin near 0.23. The list shows a part of the results.
Molecular target: T1, Nrg2 (UniProt P38082)
T1 sequence: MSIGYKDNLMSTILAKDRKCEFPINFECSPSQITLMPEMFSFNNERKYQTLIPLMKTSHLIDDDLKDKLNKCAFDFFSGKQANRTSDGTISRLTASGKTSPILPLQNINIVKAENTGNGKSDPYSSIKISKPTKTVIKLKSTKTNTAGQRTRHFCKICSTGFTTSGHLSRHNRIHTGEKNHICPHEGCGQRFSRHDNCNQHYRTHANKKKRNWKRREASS
Test: PBM E-score (8-mer binding enrichment) (E-score (-0.5 to 0.5)); higher = stronger / more preferred TF binding
Conditions: protein concentration: 100 nM; construct: GST-full length
How it was run: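 Yeast transcription factors carrying a GST tag, as full-length proteins or DNA-binding domains, were produced by PURExpress in vitro transcription/translation. About 100-200 nM protein was applied to universal all-10-mer Agilent arrays, double-stranded by primer extension on fresh or once-stripped slides. Bound protein was detected with fluorescent anti-GST, and scans were normalised with masliner. The Universal PBM Analysis Suite gave each ungapped eight-base word, pooled with its reverse complement, an E-score, a modified Wilcoxon-Mann-Whitney statistic.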

Sequence | PBM E-score
GCGGGAAA | 0.0248
AGATCGAA | 0.0979
CTCTCGCC | -0.21
GGCTGAAA | 0.0394
AGTGGCCG | -0.0882
CGTGACCC | -0.0715
GTTTCTTA | -0.00106
CCCATCGC | -0.0174
ACGGTTAT | -0.12
CAATGAGA | -0.0241
ACCGTCCT | -0.0965
CCTTGGAG | -0.0117
AGGTAGTG | -0.0967
AACGATTG | 0.113
AAATTGGA | 0.208
ACCAGGTA | -0.214
GAGAAACA | 0.121
CGGAGGGA | -0.139
GCAGCGGC | -0.181
AAAGCCGC | -0.114
ATCCCTAA | -0.0553
CGGCCAAC | 0.0106
GAGTGTGA | 0.0622
CACACGTA | -0.0612
CCGTTGCG | 0.0657

4 entries from above, with each value named:
CTCTCGCC
  PBM E-score = -0.21
GGCTGAAA
  PBM E-score = 0.0394
AGTGGCCG
  PBM E-score = -0.0882
ACGGTTAT
  PBM E-score = -0.12

The listing continues.

Sequence | PBM E-score
GCATCCCC | -0.0167
ACGTGTAG | -0.219
ACCACGTG | 0.038
AACGGGAA | -0.00212
GCATACAA | 0.213
ACGGCGAG | 0.0517
GGACTCTA | -0.0907
ATATCGGG | 0.036
TCAAATGA | -0.0989
AATGAAGT | 0.23
GAATAAAA | 0.0232
AGTCACCC | -0.14
CGTCGGTA | -0.343
AAACATGG | 5e-05
ATGCACAA | 0.221
AGGGCAGC | -0.171
ATATGATG | 0.0173
GTTGTAAA | -0.129
TCCTAAGA | -0.192
GCTTGATA | 0.184
ACCAGCGC | 0.0159
TGTGATAA | 0.067
AAGTGCAA | 0.123
CACATGGA | -0.14
TGATTCAA | -0.011

Another view of some results above:
Sequence	PBM E-score
TCAAATGA	-0.0989
AGTCACCC	-0.14

(listing goes on)

Sequence | PBM E-score
CAACCGGG | -0.0115
TCGCCCAA | 0.0172
ATGAATAC | 0.0666
ACGCGCGG | 0.192
ACAATCGA | 0.019
ACAAAGTG | 0.195
TATACTGA | 0.261
CTCATAGA | -0.061
CGTTTGCC | 0.0609
AGATAATG | -0.00061
GCCATCGC | -0.136
ATGAGGAC | -0.146
CACGCCGG | -0.0331
TGAAAAAA | 0.145
ATTATTAA | 0.238
GCATCACC | -0.0571
TTCCTAAA | -0.132
GGTGACAA | 0.15
AGAAGTCC | -0.218
CCGGCCGG | 0.165
CTGAACGC | -0.0491
CAATACGC | 0.057
AGGTGAGG | 0.0309
GCCCTGCC | 0.129
CCCGGCAA | -0.0312

Sequence | PBM E-score
AGCGCGCT | 0.187
GCTTGCCA | -0.051
TCGGCGAA | -0.0259
ACTACTAG | 0.166
AGGTATTA | 0.107
ATTAAGTC | -0.00856
CATAATCG | 0.172
AAGAGGTG | 0.026
CTACCGCA | -0.133
ACTCTAAA | 0.101
CTGAAGTC | -0.00958
CGGGTACC | -0.0855
ATCCGTCC | -0.0738
GAAACTTC | 0.146
ATTTCCAC | 0.255
ATTAAAGG | 0.16
AGCTCTTG | 0.0917
ACGAACCG | -0.00219
CCCTTACC | 0.00243
ACGGCGGC | -0.045
AGTGCTGA | -0.0594
AACAACGC | 0.0965
CGGTCCAG | -0.183
ATATATGA | 0.0746
AATATTAA | 0.295

Sequence | PBM E-score
AGCCTAAT | -0.0949
GACGTACC | -0.108
CTTTCGTA | 0.0684
ACGCTAGG | -0.266
GCCAGGCA | -0.13
GTATGATA | 0.281
CACCCTTA | 0.147
ACGTCAAA | -0.0307
ACGCCATG | -0.0604
AAGCTTGG | -0.101
AACCACCT | 0.0907
CGCTGGTA | -0.274
AGGAGGAA | -0.282
AACGATCG | 0.0433
AACTAGTC | 0.0549
ATACTGGG | -0.119
ACCCAAGT | 0.0825
AGCGTGAC | -0.0668
CAGGAACC | 0.00077
CTCTTCCC | -0.189
CACGTCAA | -0.128
AATTGGTC | 0.216
AGATCTAT | -0.0448
ATATCCAT | 0.108
AGGGGTCC | 0.316

Sequence | PBM E-score
ACCGTTTG | -0.0384
CGCCCAGA | -0.152
TGAGCGCA | 0.0359
AGGGCCCC | 0.0359
CCTGGCGA | 0.00579
TACCGTCA | 0.00993
AAAGTTGC | 0.0327
TAGCTCAA | -0.091
AAGGGGGA | -0.218
AGGTCTTG | -0.138
CGGAGGAA | -0.3
TGGCAACA | 0.0565
ATTGTATA | 0.204
CAACAGGC | -0.129
AATCCAGT | 0.208
TATTTCAA | 0.102
CCTTAGGA | -0.062
CGATCATC | 0.0521
TTGCACAA | 0.0407
AGGCTAGG | -0.245
AAGGCGGT | -0.159
AGCATGTG | 0.0722
TACGCGAA | 0.188
CATGATGA | 0.0818
AAGTATCG | 0.0639

Sequence | PBM E-score
CCCAGCCC | -0.135
CCGCTAAA | 0.0162
GGATCCAA | 0.0813
GCATTGCC | -0.0164
CGCGGAAG | 0.005
GGAACGTA | -0.0733
AATAACTC | 0.109
AATAGTTC | 0.0571
ACCGGTGC | -0.225
AATTAAAT | 0.0221
CCATTTCC | 0.119
CAGCCGAG | -0.0487
GCGTTTTA | 0.00611
CACGATAC | -0.129
AATAATAA | 0.0987
GTCCAAGA | -0.142
TCACGCCA | 0.0403
AAGTACCA | -0.0295
AGACTCCA | -0.222
TAGTTGAA | 0.0345
TATAGGCA | -0.0788
CCACGTTC | -0.0538
ATAACAGC | 0.00153
TGAAGCCA | -0.084
AAGCTGGT | 0.0648

Sequence | PBM E-score
CTCTCAAA | -0.00501
GGTAAGGA | -0.241
ATTGCTTG | 0.108
CGTCCACC | -0.167
AAAACAAT | 0.0988
CATTGGGC | -0.178
GACTTCAC | -0.0326
ATCCTTCA | 0.0591
GCGAGCGC | 0.0389
GCACTCAC | -0.0616
GGCTTAAA | -0.0977
AAAATCGT | 0.0788
CAGAGCGC | -0.213
AGATCCAT | -0.0254
GTGCCAAC | 0.0697
CTGTTTCA | -0.0777
ATGGGAGA | -0.168
TAAACTTA | -0.0576
AGGCGCGG | -0.0682
GGAGAACC | -0.127
ATCCCTGA | 0.256
AGGGTCCC | 0.397
CCGAAAAG | 0.0784
GCGAAGCC | -0.184
CTGTCTCA | 0.0324

Sequence | PBM E-score
AGGGCCAC | -0.0634
AGTGCGGA | 0.224
CCGGCTCC | -0.159
CAATATCC | 0.0332
GTTCGACA | 0.204
ACGTAATG | 0.0417
AGCTTTGG | 0.0511
AAACAGAT | -0.0424
ATCTATCG | -0.0406
AAGCCCCA | -0.116
ATTTTCTG | 0.0465
ACGGAGCT | -0.238
AGCAAGTC | 0.0224
ATAACTGC | -0.054
AACAGTAG | 0.0701
CGCCCCTA | 0.215
GTAACACA | 0.0499
CGGACTGA | -0.143
CGTACTGA | 0.149

Two successive entries out of the list so far, for reference:
Sequence | PBM E-score
ATAACTGC | -0.054
AACAGTAG | 0.0701
